# Values from PubChem BioAssay AID1259405 (NCATS, 2018)
# Purpose: 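Knock-downs that lift recombinant protein yield in hamster ovary cells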 (primary screen)
# Cells: Chinese hamster CHO-K1 ovary cells with stable secreted eGFP expression
# Reagents: single siRNA against mouse genes, 0.8 pmol siRNA per well (2 µl of 400 nM stock)
# Timing: 3 days
# Read-out: 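Percent of the per-plate non-targeting control median for intracellular GFP per well by laser scanning cytometry and for cell viability by ATP luminescence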
# Direction: GFP, % of control: higher = more GFP per well, higher productivity; viability (ATP), % of control: higher = more viable cells (more ATP)
# Rule for the call: 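a knock-down is called active if GFP reaches 120% or more of non-targeting control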
# Here is a random part of about 50,000 reagents tested. Of all reagents, about 4,000 (8%) got an active call. 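Mouse siRNA library applied to hamster cells; one well for each siRNA.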 Entries without a mark were called inactive. Reagents against one gene are numbered here. No sequences are given here.
gene knocked down,reagent no.,"GFP, % of control","viability (ATP), % of control"
Aadacl2fm1 (GeneID 229333),1,83.9,33.4
Aadacl2fm1 (GeneID 229333),2,69.9,79.5
Aadacl2fm1 (GeneID 229333),3,59.7,85.7
Zap70 (GeneID 22637),1,49.5,62.2
Zap70 (GeneID 22637),2,52.8,67.6
Zap70 (GeneID 22637),3,88.7,75
Sln (GeneID 66402),1,61.8,67
Sln (GeneID 66402),2,67.5,52.2
Sln (GeneID 66402),3,57.1,69.7
R3hdm2 (GeneID 71750),1,106,85.2
R3hdm2 (GeneID 71750),2,110,69.1
R3hdm2 (GeneID 71750),3,118,92.9
Cnksr2 (GeneID 245684),1,117,82.2
Cnksr2 (GeneID 245684),2,82.2,79
Cnksr2 (GeneID 245684),3,77.3,100
Tnc (GeneID 21923),1,45,36.4
Tnc (GeneID 21923),2,94.9,88.6
Rab27b (GeneID 80718),1,40.2,68.4
Rab27b (GeneID 80718),2,85.3,73.4
Lpcat1 (GeneID 210992),1,64.8,78.8
Lpcat1 (GeneID 210992),2,154 (active),48.6
Lpcat1 (GeneID 210992),3,58.5,57.3
Teddm1b (GeneID 433365),1,86.6,91.5
Teddm1b (GeneID 433365),2,87.1,61.2
Teddm1b (GeneID 433365),3,87,76.6
Lrfn2 (GeneID 70530),1,80.8,90.1
Lrfn2 (GeneID 70530),2,69,81.5
Lrfn2 (GeneID 70530),3,60.5,68.9
Mon1a (GeneID 72825),1,39.9,18.9
Mon1a (GeneID 72825),2,49.1,63
Mon1a (GeneID 72825),3,47.9,72
Bcl2l12 (GeneID 75736),1,54.7,88.3
Bcl2l12 (GeneID 75736),2,70.9,89.2
Bcl2l12 (GeneID 75736),3,89.7,87.3
Taar3 (GeneID 493809),1,141 (active),131
Taar3 (GeneID 493809),2,81.1,85.8
Taar3 (GeneID 493809),3,52.5,76.3
Noazfp (GeneID 30932),1,74.1,49.3
Noazfp (GeneID 30932),2,73.2,71.1
Noazfp (GeneID 30932),3,89.2,107
Zxda (GeneID 668171),1,56.9,65.4
Zxda (GeneID 668171),2,61.1,91.1
Zxda (GeneID 668171),3,42.3,53.1
Reg3b (GeneID 18489),1,76.1,92.5
Reg3b (GeneID 18489),2,69.3,41.1
Reg3b (GeneID 18489),3,71.9,49.6
AU022252 (GeneID 230696),1,89.4,63
AU022252 (GeneID 230696),2,117,110
AU022252 (GeneID 230696),3,78.3,72.2
Crisp2 (GeneID 22024),1,73.5,81
Crisp2 (GeneID 22024),2,35,60.2
Crisp2 (GeneID 22024),3,120 (active),117
Trim10 (GeneID 19824),1,134 (active),93.2
Trim10 (GeneID 19824),2,80.8,80.6
Trim10 (GeneID 19824),3,82.2,116
Mccc1 (GeneID 72039),1,82.6,78.2
Mccc1 (GeneID 72039),2,83.4,94
Mccc1 (GeneID 72039),3,95.7,117
Prkdc (GeneID 19090),1,62.4,68.9
Mpp1 (GeneID 17524),1,55.8,51
Zfp563 (GeneID 240068),1,62.2,59
Zfp563 (GeneID 240068),2,129 (active),87.4
Pxylp1 (GeneID 235534),1,50.3,68.8
Pxylp1 (GeneID 235534),2,57.2,57.8
Pxylp1 (GeneID 235534),3,86.2,102
Dhcr24 (GeneID 74754),1,83.6,130
Dhcr24 (GeneID 74754),2,95.9,89.9
Hyal5 (GeneID 74468),1,101,99.8
Hyal5 (GeneID 74468),2,52.6,65.3
Hyal5 (GeneID 74468),3,100,126
Sfmbt2 (GeneID 353282),1,37.5,70.6
Sfmbt2 (GeneID 353282),2,110,103
Sfmbt2 (GeneID 353282),3,64.8,60.7
Prss33 (GeneID 353130),1,60.8,60.7
Prss33 (GeneID 353130),2,24.7,16.1
Prss33 (GeneID 353130),3,74.1,70.1
F10 (GeneID 14058),1,60.4,94.3
F10 (GeneID 14058),2,51.5,67.3
F10 (GeneID 14058),3,34.9,64.3
1700012A03Rik (GeneID 76382),1,92.5,83.7
1700012A03Rik (GeneID 76382),2,83.4,72.3
1700012A03Rik (GeneID 76382),3,89.9,140
1700029H14Rik (GeneID 66501),1,83.3,77
1700029H14Rik (GeneID 66501),2,80.1,65.3
1700029H14Rik (GeneID 66501),3,56.5,62.9
